The results in this text go back to publication PMC8824665, “Rapid Assessment of Insect Steroid Hormone Entry Into Cultured Cells” (Frontiers in Physiology, 2022).

These are yes or no findings as the source states them, for the method shown. Binding seen in cells or lysates may run through a third protein. Some results given as binding are weak or reduced against the parent protein; the word gives no strength.

This test addresses T1, Ultraspiracle (USP) with C-terminus SmBiT (D. melanogaster) (UniProt P20153).
T1 sequence: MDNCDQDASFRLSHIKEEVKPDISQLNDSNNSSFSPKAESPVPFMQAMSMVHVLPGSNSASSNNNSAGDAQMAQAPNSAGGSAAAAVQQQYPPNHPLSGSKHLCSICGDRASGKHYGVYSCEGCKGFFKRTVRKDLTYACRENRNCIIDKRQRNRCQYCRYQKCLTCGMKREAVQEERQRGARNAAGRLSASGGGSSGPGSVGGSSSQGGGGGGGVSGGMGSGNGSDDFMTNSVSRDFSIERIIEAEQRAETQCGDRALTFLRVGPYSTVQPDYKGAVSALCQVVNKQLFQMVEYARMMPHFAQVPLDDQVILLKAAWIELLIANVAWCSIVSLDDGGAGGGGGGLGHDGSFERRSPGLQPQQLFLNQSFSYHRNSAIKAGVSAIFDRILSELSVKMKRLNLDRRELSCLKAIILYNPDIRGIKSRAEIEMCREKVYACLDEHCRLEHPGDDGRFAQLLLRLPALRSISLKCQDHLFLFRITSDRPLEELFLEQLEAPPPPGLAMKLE
The test can be described thus: split reporter; live HEK293T cells transfected with a NanoBiT plasmid pair (combinations 1-8) and an EcI-containing plasmid; luminescence read every minute at 37°C before and after vehicle (EtOH) or 10 μM 20E; relative to the baseline before treatment.

B1: Ecdysone receptor (EcR) with a C-terminal LgBiT (receptor, UniProt P34021 1-878)
chain: MKRRWSNNGGFMRLPEESSSEVTSSSNGLVLPSGVNMSPSSLDSHDYCDQDLWLCGNESGSFGGSNGHGLSQQQQSVITLAMHGCSSTLPAQTTIIPINGNANGNGGSTNGQYVPGATNLGALANGMLNGGFNGMQQQIQNGHGLINSTTPSTPTTPLHLQQNLGGAGGGGIGGMGILHHANGTPNGLIGVVGGGGGVGLGVGGGGVGGLGMQHTPRSDSVNSISSGRDDLSPSSSLNGYSANESCDAKKSKKGPAPRVQEELCLVCGDRASGYHYNALTCEGCKGFFRRSVTKSAVYCCKFGRACEMDMYMRRKCQECRLKKCLAVGMRPECVVPENQCAMKRREKKAQKEKDKMTTSPSSQHGGNGSLASGGGQDFVKKEILDLMTCEPPQHATIPLLPDEILAKCQARNIPSLTYNQLAVIYKLIWYQDGYEQPSEEDLRRIMSQPDENESQTDVSFRHITEITILTVQLIVEFAKGLPAFTKIPQEDQITLLKACSSEVMMLRMARRYDHSSDSIFFANNRSYTRDSYKMAGMADNIEDLLHFCRQMFSMKVDNVEYALLTAIVIFSDRPGLEKAQLVEAIQSYYIDTLRIYILNRHCGDSMSLVFYAKLLSILTELRTLGNQNAEMCFSLKLKNRKLPKFLEEIWDVHAIPPSVQSHLQITQEENERLERAERMRASVGGAITAGIDCDSASTSAAAAAAQHQPQPQPQPQPSSLTQNDSQHQTQPQLQPQLPPQLQGQLQPQLQPQLQTQLQPQIQPQPQLLPVSAPVPASVTAPGSLSAVSTSSEYMGGSAAIGPITPATTSSITAAVTASSTTSAVPMGNGVGVGVGVGGNVSMYANAQTAMALMGVALHSHQEQLIGGVAVKSEHSTTA
For B1, the binding result is recorded as “binds”.
